Experimental data as given in US4250094A, “1-(Aminoalkyl) substituted-6-phenyl-4H-s-triazolo[4,3-a][1,4]benzodiazepines” (priority 1979, dated 1981).

Test system: oxotremorine
Experiment: Hypothermic tests with oxotremorine: body temperature change
Assay type: in vivo, mice
Conditions: ip, 3 mg/kg, 0.5 h
Text: Hypothermic tests with oxotermorine: [1-(4-pyrrolidino-2-butynyl)-2-pyrrolidinone].

## CN1[C@@H]2CC[C@H]1C[C@@H](OC(=O)C(CO)c1ccccc1)C2 (stereo partly shown) [Atropine]
  Body Temperature °F. Change From Vehicle Control After 15 Minutes: +0.6 °F.
  Body Temperature °F. Change From Vehicle Control After 30 Minutes: - 0.6 °F.
  Body Temperature °F. Change From Vehicle Control After 60 Minutes: - 0.7 °F.
  Body Temperature °F. Change From Vehicle Control After 90 Minutes: - 0.2 °F.
